Data taken from article PMC10619437.
Where two headings read alike, the source gives them in different places. These are yes or no findings as the source states them, for the method shown. In cells and extracts the contact can be indirect. These calls come from enrichment with a bait or labelling near it, and not all partners need be listed.

By UniProt entry, the sequences of proteins in these tests, tags left out. Where a name states a change or a piece, a line headed by the entry shows the natural chain unless it says otherwise.
UniProt P21980: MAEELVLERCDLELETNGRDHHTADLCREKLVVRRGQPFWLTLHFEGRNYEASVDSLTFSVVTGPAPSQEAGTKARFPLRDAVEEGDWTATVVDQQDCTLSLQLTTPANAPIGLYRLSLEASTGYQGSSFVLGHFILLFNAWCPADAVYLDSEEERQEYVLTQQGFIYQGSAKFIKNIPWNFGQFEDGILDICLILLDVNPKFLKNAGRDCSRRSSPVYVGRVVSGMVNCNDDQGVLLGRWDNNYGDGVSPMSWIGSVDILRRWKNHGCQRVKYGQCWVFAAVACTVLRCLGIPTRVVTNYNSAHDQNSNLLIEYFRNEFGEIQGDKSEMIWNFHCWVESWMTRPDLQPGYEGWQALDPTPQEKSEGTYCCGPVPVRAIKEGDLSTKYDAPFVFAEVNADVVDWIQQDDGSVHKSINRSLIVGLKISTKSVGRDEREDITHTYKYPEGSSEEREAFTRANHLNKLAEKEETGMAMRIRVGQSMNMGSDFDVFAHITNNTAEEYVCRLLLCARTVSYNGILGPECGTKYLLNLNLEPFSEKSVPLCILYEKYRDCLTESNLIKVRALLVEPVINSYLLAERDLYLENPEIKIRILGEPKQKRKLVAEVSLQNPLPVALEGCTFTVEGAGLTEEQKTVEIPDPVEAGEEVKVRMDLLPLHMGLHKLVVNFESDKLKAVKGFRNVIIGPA
UniProt P11413: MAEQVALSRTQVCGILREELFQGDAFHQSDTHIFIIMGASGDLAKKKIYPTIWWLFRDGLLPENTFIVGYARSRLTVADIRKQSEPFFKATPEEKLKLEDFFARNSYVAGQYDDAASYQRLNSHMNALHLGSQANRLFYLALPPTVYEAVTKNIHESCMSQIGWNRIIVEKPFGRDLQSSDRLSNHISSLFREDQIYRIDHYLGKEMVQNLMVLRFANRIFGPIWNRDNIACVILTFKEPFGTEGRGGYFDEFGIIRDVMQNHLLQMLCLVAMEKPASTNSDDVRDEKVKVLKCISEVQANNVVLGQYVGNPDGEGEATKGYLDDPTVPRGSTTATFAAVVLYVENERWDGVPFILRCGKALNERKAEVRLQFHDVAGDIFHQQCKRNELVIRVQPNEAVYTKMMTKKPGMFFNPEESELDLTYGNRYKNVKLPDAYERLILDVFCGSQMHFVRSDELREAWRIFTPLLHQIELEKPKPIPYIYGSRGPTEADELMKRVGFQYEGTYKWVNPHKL
UniProt P61586: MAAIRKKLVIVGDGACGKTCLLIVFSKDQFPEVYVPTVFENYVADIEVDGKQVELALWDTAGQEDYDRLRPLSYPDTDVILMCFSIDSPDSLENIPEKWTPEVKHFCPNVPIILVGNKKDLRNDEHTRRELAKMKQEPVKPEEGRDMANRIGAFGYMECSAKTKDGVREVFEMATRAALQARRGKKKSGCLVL
UniProt P21333: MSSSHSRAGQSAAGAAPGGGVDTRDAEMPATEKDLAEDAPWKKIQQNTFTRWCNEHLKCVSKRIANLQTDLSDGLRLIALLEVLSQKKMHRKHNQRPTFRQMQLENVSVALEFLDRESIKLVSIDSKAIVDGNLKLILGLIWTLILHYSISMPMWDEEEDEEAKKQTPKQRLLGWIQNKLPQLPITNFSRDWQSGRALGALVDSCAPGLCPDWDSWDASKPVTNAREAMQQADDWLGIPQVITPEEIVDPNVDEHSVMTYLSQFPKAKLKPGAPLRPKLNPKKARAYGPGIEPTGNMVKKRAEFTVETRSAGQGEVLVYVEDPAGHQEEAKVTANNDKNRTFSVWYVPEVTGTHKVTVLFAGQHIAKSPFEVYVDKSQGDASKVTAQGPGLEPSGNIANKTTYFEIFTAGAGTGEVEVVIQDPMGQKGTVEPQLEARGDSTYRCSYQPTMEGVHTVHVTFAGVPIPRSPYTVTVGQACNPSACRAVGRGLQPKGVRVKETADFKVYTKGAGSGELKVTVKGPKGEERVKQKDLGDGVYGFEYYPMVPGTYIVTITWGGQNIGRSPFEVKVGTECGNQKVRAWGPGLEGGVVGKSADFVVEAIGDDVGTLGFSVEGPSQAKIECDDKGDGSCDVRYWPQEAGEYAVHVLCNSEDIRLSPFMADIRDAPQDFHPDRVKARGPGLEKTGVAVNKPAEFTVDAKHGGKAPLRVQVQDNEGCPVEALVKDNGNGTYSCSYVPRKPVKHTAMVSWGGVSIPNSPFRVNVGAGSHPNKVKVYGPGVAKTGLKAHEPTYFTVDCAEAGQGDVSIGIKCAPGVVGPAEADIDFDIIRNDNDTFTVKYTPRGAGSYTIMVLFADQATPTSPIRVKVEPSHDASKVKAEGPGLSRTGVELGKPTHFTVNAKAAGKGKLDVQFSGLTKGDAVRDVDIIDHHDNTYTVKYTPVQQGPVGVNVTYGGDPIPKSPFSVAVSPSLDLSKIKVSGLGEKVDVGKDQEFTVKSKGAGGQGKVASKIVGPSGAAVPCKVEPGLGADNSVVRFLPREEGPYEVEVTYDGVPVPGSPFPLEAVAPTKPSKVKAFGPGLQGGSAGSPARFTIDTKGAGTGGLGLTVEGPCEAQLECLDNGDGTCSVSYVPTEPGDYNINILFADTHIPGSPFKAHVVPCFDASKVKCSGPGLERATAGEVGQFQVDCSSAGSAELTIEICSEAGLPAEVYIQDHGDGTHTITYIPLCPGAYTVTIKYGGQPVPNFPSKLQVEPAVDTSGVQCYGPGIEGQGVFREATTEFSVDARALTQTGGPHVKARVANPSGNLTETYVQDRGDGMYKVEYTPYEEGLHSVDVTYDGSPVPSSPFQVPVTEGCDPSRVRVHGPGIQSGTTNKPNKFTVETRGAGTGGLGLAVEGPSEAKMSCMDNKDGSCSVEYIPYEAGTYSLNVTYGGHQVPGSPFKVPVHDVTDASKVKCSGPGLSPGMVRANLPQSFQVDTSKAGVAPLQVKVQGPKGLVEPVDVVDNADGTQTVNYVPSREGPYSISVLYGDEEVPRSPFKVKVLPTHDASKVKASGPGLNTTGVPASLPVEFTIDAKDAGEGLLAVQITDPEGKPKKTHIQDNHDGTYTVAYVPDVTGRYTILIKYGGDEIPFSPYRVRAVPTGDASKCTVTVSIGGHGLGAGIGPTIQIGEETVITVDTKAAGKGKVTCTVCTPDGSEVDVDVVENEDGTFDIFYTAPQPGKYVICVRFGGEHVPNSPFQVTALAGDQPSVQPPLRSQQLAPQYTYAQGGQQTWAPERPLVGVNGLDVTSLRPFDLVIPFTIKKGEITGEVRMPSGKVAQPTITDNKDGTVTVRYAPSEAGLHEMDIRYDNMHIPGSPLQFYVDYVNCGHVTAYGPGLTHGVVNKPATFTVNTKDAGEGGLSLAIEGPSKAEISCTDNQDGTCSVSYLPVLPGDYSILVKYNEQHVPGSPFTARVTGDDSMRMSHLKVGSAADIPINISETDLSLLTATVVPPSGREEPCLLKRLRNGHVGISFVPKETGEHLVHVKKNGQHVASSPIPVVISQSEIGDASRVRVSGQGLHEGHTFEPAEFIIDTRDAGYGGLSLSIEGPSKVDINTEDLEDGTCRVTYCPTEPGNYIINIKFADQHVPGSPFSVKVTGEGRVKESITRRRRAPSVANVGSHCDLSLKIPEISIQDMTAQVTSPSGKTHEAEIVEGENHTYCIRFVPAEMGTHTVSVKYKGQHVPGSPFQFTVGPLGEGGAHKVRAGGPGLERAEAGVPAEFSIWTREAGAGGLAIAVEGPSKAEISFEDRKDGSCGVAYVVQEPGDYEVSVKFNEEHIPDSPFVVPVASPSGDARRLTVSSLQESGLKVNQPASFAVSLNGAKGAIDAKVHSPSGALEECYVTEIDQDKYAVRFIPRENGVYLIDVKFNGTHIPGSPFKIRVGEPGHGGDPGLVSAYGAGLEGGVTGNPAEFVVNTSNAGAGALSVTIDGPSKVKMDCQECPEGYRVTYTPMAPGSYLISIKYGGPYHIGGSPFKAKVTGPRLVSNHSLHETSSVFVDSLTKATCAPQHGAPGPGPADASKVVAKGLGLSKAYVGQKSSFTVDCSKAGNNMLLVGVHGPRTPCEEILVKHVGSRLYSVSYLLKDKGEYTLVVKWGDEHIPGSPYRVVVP

How the values were obtained:
[1] = target: Transglutaminase 2 (human (endogenous in HMC)) (UniProt P21980); assay: affinity purification with mass spectrometry; IP of TGase2 from the cytosol fraction of HMC (with or without pIgA1 10 ug/mL, 48 h) with rabbit anti-TGase2 antibody cross-linked to protein A/G magnetic beads, overnight at 4°C; rabbit IgG as negative control; HPLC-MS/MS
[2] = target: Transglutaminase 2 (human (endogenous in HMC)) (UniProt P21980); assay: as above; remark: listed apart in the source

| Molecule | binding [1] | binding [2] |
| --- | --- | --- |
| Glucose-6-phosphate 1-dehydrogenase (from UniProt P11413 1-515) (enzyme) | binds | – |
| Ras homolog family member A (from UniProt P61586 1-193) | binds | – |

Next, values leading:

| binding [1] | binding [2] | Molecule |
| --- | --- | --- |
| binds | – | Filamin-A (from UniProt P21333 1-2647) |
| – | binds | Annexin A1 (protein, UniProt P04083 1-346) MAMVSEFLKQAWFIENEEQEYVQTVKSSKGGPGSAVSPYPTFNPSSDVAALHKAIMVKGVDEATIIDILTKRNNAQRQQIKAAYLQETGKPLDETLKKALTGHLEEVVLALLKTPAQFDADELRAAMKGLGTDEDTLIEILASRTNKEIRDINRVYREELKRDLAKDITSDTSGDFRNALLSLAKGDRSEDFGVNEDLADSDARALYEAGERRKGTDVNVFNTILTTRSYPQLRRVFQKYTKYSKHDMNKVLDLELKGDIEKCLTAIVKCATSKPAFFAEKLHQAMKGVGTRHKALIRIMVSRSEIDMNDIKAFYQKMYGISLCQAILDETKGDYEKILVALCGGN |
